# Laboratory results taken from the supplement of paper PMC8728848.
# Some of the results follow.
# B1: SHCBP1-GST (Homo sapiens), Q8NEM2 (protein)
# chain: MADGSLTGGGLEAAAMAPERMGWAVEQELASLEKGLFQDEDSCSDCSYRDKPGSSLQSFMPEGKTFFPEIFQTNQLLFYERFRAYQDYILADCKASEVQEFTAEFLEKVLEPSGWRAVWHTNVFKVLVEITDVDFAALKAVVRLAEPYLCDSQVSTFTMECMKELLDLKEHRLPLQELWVVFDDSGVFDQTALAIEHVRFFYQNIWRSWDEEEEDEYDYFVRCVEPRLRLHYDILEDRVPSGLIVDYHNLLSQCEESYRKFLNLRSSLSNCNSDSEQENISMVEGLKLYSEMEQLKQKLKLIENPLLRYVFGYQKNSNIQAKGVRSSGQKITHVVSSTMMAGLLRSLLTDRLCQEPGEEEREIQFHSDPLSAINACFEGDTVIVCPGHYVVHGTFSIADSIELEGYGLPDDIVIEKRGKGDTFVDCTGADIKISGIKFVQHDAVEGILIVHRGKTTLENCVLQCETTGVTVRTSAEFLMKNSDLYGAKGAGIEIYPGSQCTLSDNGIHHCKEGILIKDFLDEHYDIPKISMVNNIIHNNEGYGVVLVKPTIFSDLQENAEDGTEENKALKIQTSGEPDVAERVDLEELIECATGKMELCARTDPSEQVEGNCEIVNELIAASTQKGQIKKKRLSELGITQADDNLMSQEMFVGIVGNQFKWNGKGSFGTFLF
# Tests used:
# Test in all cases: glycan array binding signal (z-score within array); higher = stronger binding
# Conditions in all cases: glycan notation: IUPAC condensed, linker removed
# [1] = molecular target: Fuc(a1-2)[Gal(a1-3)]Gal(b1-4)GlcNAc(b1-2)Man(a1-3)[Fuc(a1-2)[Gal(a1-3)]Gal(b1-4)GlcNAc(b1-2)Man(a1-6)]Man(b1-4)GlcNAc(b1-4)GlcNAc
# Method in brief: (§1)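 Glycan array data came from 3228 arrays in the Consortium for Functional Glycomics database, and only arrays with an available protein sequence were kept. Glycan names were put into IUPAC-condensed notation, and columns mapping to the same glycan were averaged. The binding signal is a within-array Z-score, averaged across arrays of one protein sequence run at different concentrations or buffers and across linkers. A negative Z-score can be read as non-binding.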
# [2] = molecular target: Fuc(a1-2)[Gal(a1-3)]Gal(b1-4)GlcNAc(b1-2)Man(a1-3)[Fuc(a1-2)[Gal(a1-3)]Gal(b1-4)GlcNAc(b1-2)Man(a1-6)]Man(b1-4)GlcNAc(b1-4)[Fuc(a1-6)]GlcNAc
# Method in brief: as §1
# [3] = molecular target: Fuc(a1-2)[Gal(a1-3)]Gal(b1-4)GlcNAc(b1-3)GalNAc
# Method in brief: as §1
# [4] = molecular target: Fuc(a1-2)[Gal(a1-3)]Gal(b1-4)GlcNAc(b1-3)[Fuc(a1-2)[Gal(a1-3)]Gal(b1-4)GlcNAc(b1-6)]GalNAc
# Method in brief: as §1
# [5] = molecular target: Fuc(a1-2)[Gal(a1-3)]Gal(b1-4)GlcNAc(b1-6)GalNAc
# Method in brief: as §1
# [6] = molecular target: Fuc(a1-2)[Gal(a1-3)]Gal(b1-4)[Fuc(a1-3)]Glc
# Method in brief: as §1
# [7] = molecular target: Fuc(a1-2)[Gal(a1-3)]Gal(b1-4)[Fuc(a1-3)]GlcNAc
# Method in brief: as §1
# [8] = molecular target: Fuc(a1-2)[Gal(a1-3)]Gal(b1-4)[Fuc(a1-3)]GlcNAc(b1-3)GalNAc
# Method in brief: as §1
# [9] = molecular target: Fuc(a1-2)[Gal(a1-4)]Gal(b1-4)GlcNAc
# Method in brief: as §1
# [10] = molecular target: Fuc(a1-2)[GalNAc(a1-3)]Gal
# Method in brief: as §1
# [11] = molecular target: Fuc(a1-2)[GalNAc(a1-3)]Gal(b1-3)GalNAc(a1-3)[Fuc(a1-2)]Gal(b1-4)GlcNAc
# Method in brief: as §1
# [12] = molecular target: Fuc(a1-2)[GalNAc(a1-3)]Gal(b1-3)GalNAc(b1-3)Gal(a1-4)Gal(b1-4)Glc
# Method in brief: as §1
# [13] = molecular target: Fuc(a1-2)[GalNAc(a1-3)]Gal(b1-3)GlcNAc
# Method in brief: as §1
# [14] = molecular target: Fuc(a1-2)[GalNAc(a1-3)]Gal(b1-3)GlcNAc(b1-2)Man(a1-3)[Fuc(a1-2)[GalNAc(a1-3)]Gal(b1-3)GlcNAc(b1-2)Man(a1-6)]Man(b1-4)GlcNAc(b1-4)GlcNAc
# Method in brief: as §1
# [15] = molecular target: Fuc(a1-2)[GalNAc(a1-3)]Gal(b1-3)GlcNAc(b1-2)Man(a1-3)[Fuc(a1-2)[GalNAc(a1-3)]Gal(b1-3)GlcNAc(b1-2)Man(a1-6)]Man(b1-4)GlcNAc(b1-4)[Fuc(a1-6)]GlcNAc
# Method in brief: as §1
# [16] = molecular target: Fuc(a1-2)[GalNAc(a1-3)]Gal(b1-3)GlcNAc(b1-3)GalNAc
# Method in brief: as §1
# [17] = molecular target: Fuc(a1-2)[GalNAc(a1-3)]Gal(b1-3)GlcNAc(b1-6)GalNAc
# Method in brief: as §1
# [18] = molecular target: Fuc(a1-2)[GalNAc(a1-3)]Gal(b1-4)Glc
# Method in brief: as §1
# [19] = molecular target: Fuc(a1-2)[GalNAc(a1-3)]Gal(b1-4)GlcNAc
# Method in brief: as §1
# [20] = molecular target: Fuc(a1-2)[GalNAc(a1-3)]Gal(b1-4)GlcNAc(b1-2)Man
# Method in brief: as §1
# [21] = molecular target: Fuc(a1-2)[GalNAc(a1-3)]Gal(b1-4)GlcNAc(b1-2)Man(a1-3)[Fuc(a1-2)[GalNAc(a1-3)]Gal(b1-4)GlcNAc(b1-2)Man(a1-6)]Man(b1-4)GlcNAc(b1-4)GlcNAc
# Method in brief: as §1
# [22] = molecular target: Fuc(a1-2)[GalNAc(a1-3)]Gal(b1-4)GlcNAc(b1-2)Man(a1-3)[Fuc(a1-2)[GalNAc(a1-3)]Gal(b1-4)GlcNAc(b1-2)Man(a1-6)]Man(b1-4)GlcNAc(b1-4)[Fuc(a1-6)]GlcNAc
# Method in brief: as §1
# [23] = molecular target: Fuc(a1-2)[GalNAc(a1-3)]Gal(b1-4)GlcNAc(b1-3)Gal(b1-4)GlcNAc
# Method in brief: as §1
# [24] = molecular target: Fuc(a1-2)[GalNAc(a1-3)]Gal(b1-4)GlcNAc(b1-3)Gal(b1-4)GlcNAc(b1-3)Gal(b1-4)GlcNAc
# Method in brief: as §1
# [25] = molecular target: Fuc(a1-2)[GalNAc(a1-3)]Gal(b1-4)GlcNAc(b1-3)GalNAc
# Method in brief: as §1
# [26] = molecular target: Fuc(a1-2)[GalNAc(a1-3)]Gal(b1-4)GlcNAc(b1-3)[Fuc(a1-2)[GalNAc(a1-3)]Gal(b1-4)GlcNAc(b1-6)]GalNAc
# Method in brief: as §1
# [27] = molecular target: Fuc(a1-2)[GalNAc(a1-3)]Gal(b1-4)GlcNAc(b1-6)GalNAc
# Method in brief: as §1
# [28] = molecular target: Fuc(a1-2)[GalNAc(a1-3)]Gal(b1-4)[Fuc(a1-3)]GlcNAc
# Method in brief: as §1
# [29] = molecular target: Fuc(a1-2)[GalNAc(a1-3)]Gal(b1-4)[Fuc(a1-3)]GlcNAc(b1-3)GalNAc
# Method in brief: as §1
# [30] = molecular target: Fuc(a1-2)[GalNAc(a1-4)]Gal(b1-4)GlcNAc
# Method in brief: as §1
binder,measurement,setting,value
B1,glycan array binding signal (z-score),[1],0.255
same,glycan array binding signal (z-score),[2],-1.18
same,glycan array binding signal (z-score),[3],0.533
same,glycan array binding signal (z-score),[4],-0.22
same,glycan array binding signal (z-score),[5],0.568
same,glycan array binding signal (z-score),[6],-0.299
same,glycan array binding signal (z-score),[7],0.298
same,glycan array binding signal (z-score),[8],-0.227
same,glycan array binding signal (z-score),[9],-0.369
same,glycan array binding signal (z-score),[10],-0.748
same,glycan array binding signal (z-score),[11],-0.425
same,glycan array binding signal (z-score),[12],0.789
same,glycan array binding signal (z-score),[13],-0.199
same,glycan array binding signal (z-score),[14],-0.355
same,glycan array binding signal (z-score),[15],1.07
same,glycan array binding signal (z-score),[16],0.472
same,glycan array binding signal (z-score),[17],-0.883
same,glycan array binding signal (z-score),[18],-1.04
same,glycan array binding signal (z-score),[19],-0.701
same,glycan array binding signal (z-score),[20],0.004
same,glycan array binding signal (z-score),[21],0.13
same,glycan array binding signal (z-score),[22],-0.058
same,glycan array binding signal (z-score),[23],0.165
same,glycan array binding signal (z-score),[24],0.425
same,glycan array binding signal (z-score),[25],0.204
same,glycan array binding signal (z-score),[26],-0.947
same,glycan array binding signal (z-score),[27],-0.21
same,glycan array binding signal (z-score),[28],0.76
same,glycan array binding signal (z-score),[29],1.16
same,glycan array binding signal (z-score),[30],-0.194

# Fetched one by one from the entries so far, 2 records:
binder,measurement,setting,value
B1,glycan array binding signal (z-score),[30],-0.194
same,glycan array binding signal (z-score),[21],0.13
